Experimental findings from publication PMC10123104 (Nucleic Acids Research, 2023) are described below.

A short description of this series: general procedure: Fmoc solid-phase peptide synthesis; preloaded Wang resins (Fmoc-Arg(Pbf)-Wang, Fmoc-Asp(tBu)-Wang, Fmoc-Glu(tBu)-Wang, Fmoc-Gln(Trt)-Wang); Rink amide-AM re; DIC/Oxyma. Particulars: whole synthesis, TFA salt.

Turning to H‐LEEIAEED DED ADDDADED D‐OH, the isolated yield came out at 18%. In addition, where the note is “analytical RP-HPLC”, the “final HPLC purity” value is given as greater than 99%.
